Consider 6 substances from publication PMC5601897, “The catalytic subunit of DNA polymerase δ inhibits γTuRC activity and regulates Golgi-derived microtubules” (Nature Communications, 2017).

Sequences of proteins named here, by UniProt entry; tags and fusion partners are left off. A change or cut given only in a name is not applied to a line headed by its entry. A line that says so, or that is headed by a name, gives the form on record, which may keep a tag or linker.
UniProt P28340: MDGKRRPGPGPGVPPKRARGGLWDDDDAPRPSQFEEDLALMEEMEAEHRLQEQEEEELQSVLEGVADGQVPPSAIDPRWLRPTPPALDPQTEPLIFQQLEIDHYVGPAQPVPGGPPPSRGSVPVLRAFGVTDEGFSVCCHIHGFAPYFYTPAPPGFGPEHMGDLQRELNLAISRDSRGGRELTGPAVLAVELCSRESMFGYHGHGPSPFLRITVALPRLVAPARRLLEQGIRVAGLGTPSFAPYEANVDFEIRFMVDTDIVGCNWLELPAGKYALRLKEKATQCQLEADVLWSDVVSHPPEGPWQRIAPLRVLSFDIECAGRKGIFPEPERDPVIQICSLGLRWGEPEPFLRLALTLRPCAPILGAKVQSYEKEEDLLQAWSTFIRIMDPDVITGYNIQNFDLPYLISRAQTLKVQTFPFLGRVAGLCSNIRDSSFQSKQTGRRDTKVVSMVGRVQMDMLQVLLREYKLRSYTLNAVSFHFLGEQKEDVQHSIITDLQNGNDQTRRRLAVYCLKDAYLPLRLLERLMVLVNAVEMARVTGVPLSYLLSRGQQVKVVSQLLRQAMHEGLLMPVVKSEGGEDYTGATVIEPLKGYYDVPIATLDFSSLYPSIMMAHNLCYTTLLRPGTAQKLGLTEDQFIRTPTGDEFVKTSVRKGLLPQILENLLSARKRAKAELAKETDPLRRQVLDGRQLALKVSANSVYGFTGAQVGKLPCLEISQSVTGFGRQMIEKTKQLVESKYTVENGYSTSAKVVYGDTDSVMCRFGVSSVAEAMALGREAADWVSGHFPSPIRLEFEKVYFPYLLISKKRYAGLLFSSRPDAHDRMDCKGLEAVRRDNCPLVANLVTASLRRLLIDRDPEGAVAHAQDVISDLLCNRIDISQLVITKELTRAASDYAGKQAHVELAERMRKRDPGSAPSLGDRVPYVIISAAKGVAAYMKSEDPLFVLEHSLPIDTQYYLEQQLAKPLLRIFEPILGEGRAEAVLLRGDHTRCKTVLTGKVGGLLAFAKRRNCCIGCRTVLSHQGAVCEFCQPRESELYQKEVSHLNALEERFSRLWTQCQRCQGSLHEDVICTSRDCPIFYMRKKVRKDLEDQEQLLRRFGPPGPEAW
FLAG-PolD1 S605del, ectopically expressed (P28340, form named): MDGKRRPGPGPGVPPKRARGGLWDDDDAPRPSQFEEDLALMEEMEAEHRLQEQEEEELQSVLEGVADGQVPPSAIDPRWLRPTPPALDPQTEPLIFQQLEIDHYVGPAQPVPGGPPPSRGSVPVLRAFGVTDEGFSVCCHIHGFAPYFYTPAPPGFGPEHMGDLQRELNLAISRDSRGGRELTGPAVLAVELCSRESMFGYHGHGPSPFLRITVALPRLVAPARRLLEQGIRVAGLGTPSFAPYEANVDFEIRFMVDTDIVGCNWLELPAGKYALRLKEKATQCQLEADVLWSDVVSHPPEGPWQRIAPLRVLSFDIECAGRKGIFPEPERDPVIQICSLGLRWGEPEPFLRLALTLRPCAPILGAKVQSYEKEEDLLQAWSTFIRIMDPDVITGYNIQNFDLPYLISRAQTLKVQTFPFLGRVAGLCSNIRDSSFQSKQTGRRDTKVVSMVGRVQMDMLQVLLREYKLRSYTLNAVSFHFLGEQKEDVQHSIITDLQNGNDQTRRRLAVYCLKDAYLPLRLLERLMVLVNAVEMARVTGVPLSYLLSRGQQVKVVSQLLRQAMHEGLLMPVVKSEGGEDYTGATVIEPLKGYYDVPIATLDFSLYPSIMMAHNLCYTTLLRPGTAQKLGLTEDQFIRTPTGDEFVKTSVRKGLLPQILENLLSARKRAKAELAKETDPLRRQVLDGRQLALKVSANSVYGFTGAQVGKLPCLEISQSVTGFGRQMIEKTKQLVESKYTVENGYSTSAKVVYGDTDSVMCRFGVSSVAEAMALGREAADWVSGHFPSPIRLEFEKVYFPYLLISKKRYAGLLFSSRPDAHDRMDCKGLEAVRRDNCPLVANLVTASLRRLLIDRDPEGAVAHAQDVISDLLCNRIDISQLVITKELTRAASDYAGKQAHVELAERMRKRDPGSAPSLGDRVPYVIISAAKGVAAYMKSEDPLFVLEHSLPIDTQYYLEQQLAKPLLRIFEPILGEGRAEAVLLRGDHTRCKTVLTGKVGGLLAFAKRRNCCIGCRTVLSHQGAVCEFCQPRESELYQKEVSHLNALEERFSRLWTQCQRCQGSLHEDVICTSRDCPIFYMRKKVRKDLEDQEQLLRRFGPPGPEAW
UniProt Q9UGJ1: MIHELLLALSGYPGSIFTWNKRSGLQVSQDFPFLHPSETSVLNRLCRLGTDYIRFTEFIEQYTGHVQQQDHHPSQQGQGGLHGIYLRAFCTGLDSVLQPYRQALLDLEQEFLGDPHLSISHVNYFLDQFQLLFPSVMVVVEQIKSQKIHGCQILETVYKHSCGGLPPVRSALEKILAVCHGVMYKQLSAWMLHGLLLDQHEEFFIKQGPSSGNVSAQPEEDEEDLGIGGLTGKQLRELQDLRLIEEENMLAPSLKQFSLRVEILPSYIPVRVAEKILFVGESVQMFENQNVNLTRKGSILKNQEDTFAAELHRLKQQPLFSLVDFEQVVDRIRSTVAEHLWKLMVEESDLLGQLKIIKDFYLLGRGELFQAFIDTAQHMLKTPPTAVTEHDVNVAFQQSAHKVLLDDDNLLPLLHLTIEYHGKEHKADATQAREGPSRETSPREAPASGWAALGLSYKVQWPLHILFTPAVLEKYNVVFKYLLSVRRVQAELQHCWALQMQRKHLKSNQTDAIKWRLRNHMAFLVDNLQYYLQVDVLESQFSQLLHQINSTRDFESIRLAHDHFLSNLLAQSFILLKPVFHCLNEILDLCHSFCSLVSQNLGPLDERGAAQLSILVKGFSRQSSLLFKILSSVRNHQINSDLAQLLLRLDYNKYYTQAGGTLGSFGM
UniProt Q96CW5: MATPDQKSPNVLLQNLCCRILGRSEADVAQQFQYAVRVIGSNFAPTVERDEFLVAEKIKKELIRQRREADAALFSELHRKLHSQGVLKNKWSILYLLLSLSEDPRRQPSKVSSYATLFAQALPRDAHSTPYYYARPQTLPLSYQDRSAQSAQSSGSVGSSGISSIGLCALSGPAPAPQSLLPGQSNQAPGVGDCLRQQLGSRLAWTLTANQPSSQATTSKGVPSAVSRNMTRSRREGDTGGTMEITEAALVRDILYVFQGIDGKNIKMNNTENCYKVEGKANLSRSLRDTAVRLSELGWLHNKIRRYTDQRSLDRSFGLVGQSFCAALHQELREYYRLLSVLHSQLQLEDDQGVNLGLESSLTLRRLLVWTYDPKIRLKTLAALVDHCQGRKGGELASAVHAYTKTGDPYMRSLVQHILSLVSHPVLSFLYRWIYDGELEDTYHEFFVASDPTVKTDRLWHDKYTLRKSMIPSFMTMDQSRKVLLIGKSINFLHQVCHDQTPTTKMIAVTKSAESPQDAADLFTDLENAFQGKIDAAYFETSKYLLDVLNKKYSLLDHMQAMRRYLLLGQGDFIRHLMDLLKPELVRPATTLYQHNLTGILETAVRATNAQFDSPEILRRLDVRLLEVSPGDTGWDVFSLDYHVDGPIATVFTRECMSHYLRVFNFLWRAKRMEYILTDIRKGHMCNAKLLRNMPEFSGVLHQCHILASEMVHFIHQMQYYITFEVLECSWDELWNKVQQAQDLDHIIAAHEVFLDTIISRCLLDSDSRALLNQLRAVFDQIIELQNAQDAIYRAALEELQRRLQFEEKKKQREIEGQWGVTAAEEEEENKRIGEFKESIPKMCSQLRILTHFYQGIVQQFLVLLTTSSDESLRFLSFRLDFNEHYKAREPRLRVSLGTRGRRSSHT
UniProt P49005: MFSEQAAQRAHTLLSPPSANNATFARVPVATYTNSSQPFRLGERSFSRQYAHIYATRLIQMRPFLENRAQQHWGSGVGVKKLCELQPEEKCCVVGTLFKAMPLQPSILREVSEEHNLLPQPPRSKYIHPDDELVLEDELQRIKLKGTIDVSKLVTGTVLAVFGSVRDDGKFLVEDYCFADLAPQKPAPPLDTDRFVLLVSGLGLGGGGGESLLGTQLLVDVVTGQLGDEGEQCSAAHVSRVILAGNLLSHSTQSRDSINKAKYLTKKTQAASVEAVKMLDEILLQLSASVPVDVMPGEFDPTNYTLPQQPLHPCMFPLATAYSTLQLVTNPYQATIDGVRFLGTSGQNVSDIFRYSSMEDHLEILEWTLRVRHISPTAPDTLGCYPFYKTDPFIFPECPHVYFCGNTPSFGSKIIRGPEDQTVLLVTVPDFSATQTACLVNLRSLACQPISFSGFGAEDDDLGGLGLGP
UniProt Q96RT8: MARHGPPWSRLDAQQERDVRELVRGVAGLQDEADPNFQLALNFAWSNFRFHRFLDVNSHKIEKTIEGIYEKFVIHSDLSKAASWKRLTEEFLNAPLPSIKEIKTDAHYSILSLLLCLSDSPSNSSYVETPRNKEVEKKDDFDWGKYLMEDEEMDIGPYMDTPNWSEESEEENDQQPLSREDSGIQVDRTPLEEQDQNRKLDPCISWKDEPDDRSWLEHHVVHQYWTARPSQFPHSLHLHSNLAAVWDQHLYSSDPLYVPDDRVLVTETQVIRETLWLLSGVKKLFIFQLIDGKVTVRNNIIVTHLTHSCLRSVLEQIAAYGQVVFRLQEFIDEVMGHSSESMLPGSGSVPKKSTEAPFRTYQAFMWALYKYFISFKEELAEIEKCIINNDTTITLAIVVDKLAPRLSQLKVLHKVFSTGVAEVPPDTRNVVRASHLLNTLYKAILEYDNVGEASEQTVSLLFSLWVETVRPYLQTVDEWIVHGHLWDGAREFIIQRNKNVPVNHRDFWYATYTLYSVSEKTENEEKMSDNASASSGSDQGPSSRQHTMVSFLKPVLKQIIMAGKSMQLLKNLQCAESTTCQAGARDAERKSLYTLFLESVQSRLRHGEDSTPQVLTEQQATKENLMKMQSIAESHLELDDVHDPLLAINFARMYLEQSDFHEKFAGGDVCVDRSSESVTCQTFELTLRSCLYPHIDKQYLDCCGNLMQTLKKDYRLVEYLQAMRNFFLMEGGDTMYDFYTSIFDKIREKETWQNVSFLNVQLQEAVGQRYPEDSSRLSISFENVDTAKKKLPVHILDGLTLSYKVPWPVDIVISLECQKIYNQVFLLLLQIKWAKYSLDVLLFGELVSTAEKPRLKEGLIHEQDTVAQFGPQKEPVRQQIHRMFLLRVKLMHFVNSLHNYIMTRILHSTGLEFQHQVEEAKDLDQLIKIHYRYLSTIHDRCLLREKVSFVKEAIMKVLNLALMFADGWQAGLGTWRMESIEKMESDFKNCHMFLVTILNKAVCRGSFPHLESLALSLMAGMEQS

Experiment [1] has as its target FLAG-PolD1 S605del, ectopically expressed (human) (UniProt P28340). Nature of the experiment: co-IP; FLAG-tagged PolD1, its mutants or fragments expressed in HEK293T cells; anti-FLAG M2 beads in extracts (0.5% IGEPAL CA-630), 4 °C, 2 h; cells with control or GCP4-specific siRNA in Fig. 1c; immunoblot of endogenous partners. (A western blot detects proteins with antibodies after separation by electrophoresis.)

The target in experiment [2] is FLAG-PolD1 D515V, ectopically expressed (human) (UniProt P28340). The description is as above.
Experiment [3] concerns the target FLAG-PolD1 (wild type), ectopically expressed (human) (UniProt P28340). The description is as above.
Experiment [4] concerns the target GCP4, endogenous (human (endogenous in HEK293T)) (UniProt Q9UGJ1). Nature of the experiment: co-IP; endogenous proteins; HEK293T cell extracts (lysis buffer with 0.5% IGEPAL CA-630), anti-GCP6 or anti-GCP4 on Protein A-agarose, 4 °C, 2 h; normal rabbit IgG as control; cells with control or pold1-targeting siRNAs for anti-GCP4; immunoblot.
The target of experiment [5] is GCP6, endogenous (human (endogenous in HEK293T)) (UniProt Q96RT7). Described as above.

These are yes or no findings as the source states them, for the method shown. Binding seen in cells or lysates may run through a third protein. Some results given as binding are weak or reduced against the parent protein; the word gives no strength.

Turning to “GCP4, endogenous (from UniProt Q9UGJ1 1-667)”, the binding result in experiment [1], in experiment [2] and in experiment [3] was “binds” in each case.

“GCP3, endogenous (from UniProt Q96CW5 1-907)”: the binding result in experiment [1], in experiment [2] and in experiment [3] was “binds” each time.

Turning to “GCP6, endogenous (from UniProt Q96RT7 1-1819)”, the binding result in experiment [1], in experiment [2], in experiment [3] and in experiment [4] was “binds” in each case.

For the substance “PolD2, endogenous (from UniProt P49005 1-469)”, the binding entry in experiment [3] is given as “binds”.

As for “DNA polymerase δ catalytic subunit (PolD1), endogenous (from UniProt P28340 1-1107)”, the binding result in experiment [4] and in experiment [5] was “binds” each time.

Turning to “GCP5, endogenous (from UniProt Q96RT8 1-1024)”, the binding entry in experiment [1], in experiment [2] and in experiment [3] was “binds” in each case.
